# Measurements from the supplement of paper PMC3741180, “A Novel High Throughput Biochemical Assay to Evaluate the HuR Protein-RNA Complex Formation” (PLoS ONE, 2013).
# Chains of the proteins cited; added tags and fusions are not shown.
# UniProt Q15717, whole entry: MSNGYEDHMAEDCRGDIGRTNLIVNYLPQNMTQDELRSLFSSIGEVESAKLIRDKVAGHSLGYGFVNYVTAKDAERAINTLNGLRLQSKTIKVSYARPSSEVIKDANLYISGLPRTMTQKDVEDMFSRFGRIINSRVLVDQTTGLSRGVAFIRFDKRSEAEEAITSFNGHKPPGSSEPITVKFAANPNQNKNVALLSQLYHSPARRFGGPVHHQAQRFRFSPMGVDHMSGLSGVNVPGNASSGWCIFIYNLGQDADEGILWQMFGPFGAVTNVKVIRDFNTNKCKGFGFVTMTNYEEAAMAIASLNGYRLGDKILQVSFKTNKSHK
# “And” between values parts separate entries of the source, which are not always exact repeats. Identical values can stand only once. The list shows a part of the results. This data set is noisy: repeats of one test often differ as much as different tests do.
# Molecular target: HuR (ELAVL1) - TNFalpha ARE RNA complex (UniProt Q15717)
# Assay: AlphaScreen HuR-RNA complex signal Z-score relative to positive (Bi-TNF, DMSO) controls (Z-score (SD units of positive control)); higher = more complex signal
# Conditions: screen stage: primary screen; compound concentration: 25 nM
row,SMILES,AlphaScreen HuR-RNA complex signal Z-score
1,CN[C@@H]1[C@@H](O)[C@@H](O[C@@H]2[C@@H](O)[C@H](O[C@H]3O[C@H]([C@@H](C)O)[C@@H](O)[C@H](O)[C@H]3N)[C@@H](N)C[C@H]2N)OC[C@]1(C)O,1.85
2,CC(C)C[C@H]1C(=O)N2CCC[C@H]2[C@]2(O)O[C@](NC(=O)[C@@H]3C=C4c5cccc6[nH]c(Br)c(c56)C[C@H]4N(C)C3)(C(C)C)C(=O)N12,0.588
3,CN1[C@@H]2CC[C@H]1C[C@@H](OC(=O)C(CO)c1ccccc1)C2 (some centres not stated),0.315
4,CN1[C@@H]2CC[C@H]1C[C@@H](OC(c1ccccc1)c1ccccc1N)C2 (some centres not stated),-0.446
5,CNC(Cc1c[nH]c2ccccc12)C(=O)O (configuration not stated),0.303
6,CNC(C)(C)Cc1ccccc1,1.5
7,O=C(O)CCCOc1ccc(Cl)cc1Cl,0.352
8,O=C(NC(=O)c1ccccc1Cl)Nc1ccc(OC(F)(F)F)cc1,3.61
9,COc1ccc(C(CN(C)C)C2(O)CCCCC2)cc1 (configuration not stated),1.21
10,CNC(=O)Oc1ccc2c(c1)[C@]1(C)CCN(C)[C@@H]1N2C,0.61
11,CN(C)C(=O)Oc1cccc([N+](C)(C)C)c1,-0.204
12,CN1[C@H]2C[C@H](OC(=O)[C@H](CO)c3ccccc3)C[C@@H]1[C@@H](O)C2,-4.91
13,CC(C)(N)Cc1ccccc1,0.765
14,CN(CC[C@H](N)CC(=O)N[C@H]1C=C[C@H](n2ccc(N)nc2=O)O[C@@H]1C(=O)O)C(=N)N,2.21
15,COc1ccc(C(=O)O)cc1OC,1.77
16,CC1(C)C2CC(=O)[C@]3(C)C(CC[C@@]4(C)[C@H](c5ccoc5)OC(=O)[C@H]5O[C@]543)[C@@]2(C)C(=O)C[C@H]1O (some centres not stated),1.66
17,NCC(=O)c1ccccc1,2.35
18,O=c1c(O)c(-c2ccc(O)c(O)c2)oc2c(O)c(O)cc(O)c12,0.946
19,CN1CCc2cc3c(cc2C1O)OCO3 (configuration not stated),0.412
20,COc1cccc2c1cc([N+](=O)[O-])c1c(C(=O)O)cc3c(c12)OCO3,-0.0874
21,COc1ccc(/C=C/c2cc(O)cc(O)c2)cc1,2.08
22,O=c1[nH]c2ccccc2n1C1CCN(CCCC(c2ccc(F)cc2)c2ccc(F)cc2)CC1,0.544
23,CC(=O)[O][Hg][c]1ccccc1,-1.27
24,CC(=O)Nc1cc([As](=O)(O)O)ccc1O,-0.623
25,Cc1cc2c(C(C)C)c(O)c(O)c(C=O)c2c(O)c1-c1c(C)cc2c(C(C)C)c(O)c(O)c(C=O)c2c1O,2.42

row,SMILES,AlphaScreen HuR-RNA complex signal Z-score
1,C/C=C(\C)C(=O)O[C@H]1C[C@@H](OC(C)=O)[C@@]2(C(=O)OC)CO[C@H]3[C@@H](O)[C@@](C)([C@]45O[C@@]4(C)[C@H]4C[C@@H]5O[C@@H]5OC=C[C@@]54O)[C@H]4[C@]1(CO[C@]4(O)C(=O)OC)[C@@H]32,0.635
2,COc1cc2c(cc1OC)[C@@H]1C(=O)c3ccc(OC)c(CC=C(C)C)c3O[C@@H]1CO2,1.81
3,C#CCN(C)[C@H](C)Cc1ccccc1,0.995
4,C[C@@H]1O[C@@H](O[C@@H]2C=C3CC[C@@H]4[C@H](CC[C@]5(C)[C@@H](c6ccc(=O)oc6)CC[C@]45O)[C@@]3(C)CC2)[C@H](O)[C@H](O)[C@H]1O,1.64
5,CN(C)C(=O)Oc1ccc[n+](C)c1,1.36
6,c1cc2c(cc1[C@H]1OC[C@H]3[C@@H]1CO[C@H]3c1ccc3c(c1)OCO3)OCO2,-0.381
7,c1ccc2c(c1)[nH]c1cnccc12,1.55
8,O=[N+]([O-])c1ccc(O)c([N+](=O)[O-])c1,1.94
9,COC1=C[C@]23CCCN2CCc2cc4c(cc2[C@@H]3[C@@H]1O)OCO4,1.56
10,NCCCNCCSP(=O)(O)O,3.14
11,CC(C)c1ccc2c(c1O)CC[C@H]1C3=C(CC[C@]21C)C(=O)OC3,1.55
12,COP(=S)(OC)Oc1cc(Cl)c(Cl)cc1Cl,3.19
13,COc1cc2occc2c2oc(=O)ccc12,0.386
14,CCCCCCCCC(=O)NCc1ccc(O)c(OC)c1,-0.471
15,COc1cc2c(cc1O)C[C@H]1c3c(cc(O)c(OC)c3-2)CCN1C,2.83
16,CC1(C)C(=O)C=C[C@@]2(C)C1=C(O)C(=O)[C@]1(C)[C@@H]2CC[C@@]2(C)[C@H](c3ccoc3)C[C@H]3O[C@]321,0.09
17,Cc1c(O)c(O)cc2c1CC=C1[C@@]2(C)CC[C@@]2(C)[C@@H]3C[C@](C)(C(=O)O)CC[C@]3(C)CC[C@]12C,2.5
18,O=C1CCO1,3.76
19,COc1ccc(OC)c(C(O)C(C)N)c1 (configuration not stated),1.95
20,CCC(=O)O[C@H]1CC[C@H]2[C@@H]3CCC4=CC(=O)CC[C@]4(C)[C@H]3CC[C@]12C,0.315
21,O=C1C(Cl)=C(Cl)C(=O)C(Cl)=C1Cl,1.61
22,C[C@@H]1CC[C@]2(NC1)O[C@H]1C[C@H]3[C@@H]4CC=C5C[C@@H](O)CC[C@]5(C)[C@H]4CC[C@]3(C)[C@H]1[C@@H]2C,2.68
23,Oc1ccc(Cl)cc1Cc1cc(Cl)ccc1O,0.981
24,Cl[C@H]1[C@H](Cl)[C@@H](Cl)[C@@H](Cl)[C@H](Cl)[C@H]1Cl,0.719
25,CNC(=O)Oc1cccc2c1OC(C)(C)C2,0.687

row,SMILES,AlphaScreen HuR-RNA complex signal Z-score
1,COc1cc([C@@H]2c3cc4c(cc3[C@@H](O)[C@H]3COC(=O)[C@H]23)OCO4)cc(OC)c1O,1.98
2,CCCC(C)(COC(N)=O)COC(=O)NC(C)C (configuration not stated),0.312
3,COC(C)(C)CCC[C@H](C)C/C=C/C(C)=C/C(=O)OC(C)C,1.26
4,C[C@@]12C(=O)OC(=O)[C@]1(C)[C@H]1CC[C@@H]2O1,2.62
5,COc1cc(OC)c(OC)cc1C=O,2.04
6,C[N+]1(C)CCCC(OC(=O)C(O)(c2ccccc2)c2ccccc2)C1 (configuration not stated),4.97
7,CN1C2CCC1CC(O)C2 (configuration not stated),2.93
8,CC(=O)O[C@@H]1C[C@H]2C(C)(C)C(=O)C=C[C@]2(C)[C@H]2CC[C@]3(C)C(=CC(=O)O[C@H]3c3ccoc3)[C@@]21C,2.09
9,COC(=O)NC(=S)Nc1ccccc1NC(=S)NC(=O)OC,2.08
10,CCOP(=S)(OCC)Oc1ccc2c(C)c(Cl)c(=O)oc2c1,0.559
11,CC(C)=CCC[C@]1(C)C=Cc2c(O)c3c(c(CC=C(C)C)c2O1)O[C@]12C(=C[C@@H]4C[C@H]1C(C)(C)O[C@@]2(C/C=C(/C)C(N)=O)C4=O)C3=O,-0.531
12,CC1CC(Cl)CCC1C(=O)OC(C)(C)C (configuration not stated),1.61
13,C=CCC1(C(C)CCC)C(=O)NC(=S)NC1=O (configuration not stated),2.35
14,CCCCCCCCCCCCCCCC[n+]1ccccc1,-6.13
15,c1ccc(/N=N/c2ccccc2)cc1,2.03
16,COP(=S)(OC)Oc1ccc(Sc2ccc(OP(=S)(OC)OC)cc2)cc1,0.412
17,O=P1(N(CCCl)CCCl)NCCCO1 (configuration not stated),-2.6
18,c1ccc2c(c1)sc1ccccc12,-6.15
19,CN1C(=O)CCS(=O)(=O)C1c1ccc(Cl)cc1 (configuration not stated),1.78
20,COc1cc([C@@H]2c3cc4c(cc3[C@H](OC(C)=O)[C@H]3COC(=O)[C@@H]23)OCO4)cc(OC)c1OC,0.0695
21,O=C(O)Cc1cnc[nH]1,1.88
22,COc1cc2c(c(OC)c1OC)-c1ccc(OC)c(=O)cc1[C@@H](NC(C)=O)CC2,-2.71
23,CC[C@@H](CO)NC(=O)[C@@H]1C=C2c3cccc4c3c(cn4C)C[C@H]2N(C)C1,0.486 and 0.567
24,N#C[C@H](O[C@@H]1O[C@H](CO[C@@H]2O[C@H](CO)[C@@H](O)[C@H](O)[C@H]2O)[C@@H](O)[C@H](O)[C@H]1O)c1ccccc1,0.807
25,CC1C=CC=CCCC=CC=CC=CC=CC(OC2OC(C)C(O)C(N)C2O)CC2OC(O)(CC(O)C(O)CCC(O)CC(O)CC(O)CC(=O)OC(C)C(C)C1O)CC(O)C2C(=O)O (configuration not stated),10.1

row,SMILES,AlphaScreen HuR-RNA complex signal Z-score
1,C[C@@H]1C[C@H](O)[C@@]2(O)[C@]13CC(=O)OC[C@@]2(C)[C@@](C)(O)C(=O)C3,3.2
2,CC(=O)O[C@H]1CC[C@@]2(C)[C@H](CC[C@@H]3[C@@H]2CC[C@]2(C)[C@@H](C4=CC(=O)OC4)[C@@H](OC(C)=O)C[C@]32O)C1,2.32
3,CC[N+]1(C)CCCC(OC(=O)C(O)(c2ccccc2)c2ccccc2)C1 (configuration not stated),2.35
4,CC1=C2C(=CO[C@H](C)[C@H]2C)C(O)=C(C(=O)O)C1=O,1.16
5,CC(C)Nc1nc(Cl)nc(NC(C)C)n1,1.25
6,N#Cc1c(Cl)c(Cl)c(Cl)c(C#N)c1Cl,0.376
7,N[C@H](CO)Cc1ccccc1,2.22
8,Cc1[nH]c2ccccc2c1CN(C)C,1.77
9,Cc1nccc2c1[nH]c1cc(O)ccc12,-0.107
10,CCCCCCC(C)OC(=O)COc1ccc(Cl)cc1Cl (configuration not stated),0.101
11,CC(C)c1cc2c(c(O)c1O)[C@@]1(C(=O)O)CCCC(C)(C)[C@@H]1CC2,0.572
12,O=C(O)CC[N+](=O)[O-] [BOVINOCIDIN (3-nitropropionic acid)],-0.473
13,Oc1ccc2c3c1O[C@H]1[C@@H](O)CC[C@@]4(O)[C@@H](C2)N(CC2CCC2)CC[C@]314,0.582
14,C/C=C/c1ccc2c(c1)OCO2,1.18
15,CN1CCc2cc3c(cc2[C@H]1[C@@H]1OC(=O)c2c1ccc1c2OCO1)OCO3,-1.25
16,CN1C[C@H](CNC(=O)OCc2ccccc2)C[C@@H]2c3cccc4c3c(cn4C)C[C@H]21,-1.48
17,CC(N)C(O)c1ccccc1 (configuration not stated),7.24
18,"CC1(C)C(=O)[C@@H]2O[C@@H]2[C@@]2(C)C1C[C@@H](O)[C@]1(C)C2CC[C@@]2(C)[C@H](c3ccoc3)OC(=O)C3OC321 (stereo partly drawn) [1,2alpha-EPOXYDEACETOXYDIHYDROGEDUNIN]",1.39
19,CC1=CCCC2C1(C)CCC(C)C2(C)CC/C(C)=C/Cn1c[n+](C)c2c(N)ncnc21 (configuration not stated) [AGELASINE (stereochemistry of diterpene unknown)],0.15
20,O=C(CCCN1CCC2(CC1)C(=O)NCN2c1ccccc1)c1ccc(F)cc1,1.31
21,O=[N+]([O-])O[C@H]1CO[C@H]2[C@@H]1OC[C@H]2O[N+](=O)[O-],3.95
22,O=c1cccc2n1C[C@@H]1CNC[C@H]2C1,0.536
